Source: paper PMC5892942
Results are given in words; binding and its absence hold for the method and conditions named. In cells and extracts the contact can be indirect. Some results given as binding are weak or reduced against the parent protein; the word gives no strength.

Amino acid sequences for entries named in this document (tags omitted).
UniProt P62993: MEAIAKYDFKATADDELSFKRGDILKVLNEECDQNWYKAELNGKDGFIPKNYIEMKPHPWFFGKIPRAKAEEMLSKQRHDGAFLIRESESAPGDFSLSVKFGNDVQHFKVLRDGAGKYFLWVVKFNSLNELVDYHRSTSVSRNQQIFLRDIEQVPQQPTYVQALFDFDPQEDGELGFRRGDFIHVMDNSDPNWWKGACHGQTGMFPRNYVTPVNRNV
UniProt Q6QME8: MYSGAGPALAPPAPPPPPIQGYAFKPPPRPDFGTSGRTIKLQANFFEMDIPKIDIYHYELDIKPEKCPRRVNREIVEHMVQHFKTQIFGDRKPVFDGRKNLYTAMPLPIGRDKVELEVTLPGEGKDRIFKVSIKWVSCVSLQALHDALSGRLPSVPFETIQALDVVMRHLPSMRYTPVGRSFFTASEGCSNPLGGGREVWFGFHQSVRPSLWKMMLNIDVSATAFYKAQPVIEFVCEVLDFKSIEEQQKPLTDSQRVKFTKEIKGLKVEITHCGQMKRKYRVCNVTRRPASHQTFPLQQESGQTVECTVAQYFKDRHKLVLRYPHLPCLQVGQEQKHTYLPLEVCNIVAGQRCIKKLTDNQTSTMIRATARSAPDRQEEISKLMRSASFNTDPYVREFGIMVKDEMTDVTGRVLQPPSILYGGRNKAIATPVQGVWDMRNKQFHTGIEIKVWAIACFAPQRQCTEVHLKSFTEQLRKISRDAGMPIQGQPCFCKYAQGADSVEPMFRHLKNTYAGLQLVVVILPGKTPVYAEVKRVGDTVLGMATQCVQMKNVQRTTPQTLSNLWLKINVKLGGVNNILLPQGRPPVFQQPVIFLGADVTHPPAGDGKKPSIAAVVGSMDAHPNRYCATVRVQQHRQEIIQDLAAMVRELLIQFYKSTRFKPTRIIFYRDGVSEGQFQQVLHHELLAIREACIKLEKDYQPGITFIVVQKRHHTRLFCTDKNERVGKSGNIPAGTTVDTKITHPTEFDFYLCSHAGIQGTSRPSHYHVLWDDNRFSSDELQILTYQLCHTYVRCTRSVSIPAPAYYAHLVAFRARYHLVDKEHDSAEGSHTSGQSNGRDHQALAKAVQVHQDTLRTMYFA

Biological target: GST-Grb2 (UniProt P62993)
Test: pull-down; GST-Grb2 beads with cell extracts of virulent T. annulata-infected macrophages; endogenous AGO2 and PTP1B detected by western blot; only the target purified

binding: binds
Substance: AGO2 (from UniProt Q6QME8 1-860)
